Results are given in words; binding and its absence hold for the method and conditions named. In cells and extracts the contact can be indirect. Some results given as binding are weak or reduced against the parent protein; the word gives no strength.
Tests used:
[1] = target: PED/PEA-15 over-expressed in transgenic Tg_(Ped/pea-15) mice (UniProt Q15121); assay: co-IP; tibialis skeletal muscle homogenate of Tg_(Ped/pea-15) mice one week after infection with Ad-D4 or Ad-GFP; IP with anti-PED/PEA-15 antibody, blot with anti-PLD1
[2] = target: PED/PEA-15 over-expressed in transgenic Tg_(Ped/pea-15) mice (UniProt Q15121); assay: co-IP; tibialis skeletal muscle lysate (0.5-1 mg) of Wt and Tg_(Ped/pea-15) mice, precleared with pre-immune serum, anti-PED/PEA-15 antibody overnight at 4°C, protein A sepharose, blot with anti-PLD1
[3] = target: phosphoprotein enriched in diabetes/phosphoprotein enriched in astrocytes (PED/PEA-15), endogenous in wild type mice (mouse (endogenous in tibialis skeletal muscle)) (UniProt Q62048); assay: as above

Protein sequences, listed by entry. Tags and fused reporters are not part of them.
UniProt Q15121: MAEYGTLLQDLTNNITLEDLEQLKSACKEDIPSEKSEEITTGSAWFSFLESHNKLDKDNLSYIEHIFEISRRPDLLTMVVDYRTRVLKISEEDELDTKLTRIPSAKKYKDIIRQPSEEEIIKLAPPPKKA
UniProt Q62048: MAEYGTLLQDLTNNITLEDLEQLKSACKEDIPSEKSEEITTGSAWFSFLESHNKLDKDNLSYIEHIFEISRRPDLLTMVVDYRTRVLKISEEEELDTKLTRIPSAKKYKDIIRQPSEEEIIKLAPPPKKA

Measured: binding

B1: Phospholipase D1 (PLD1), endogenous in mouse skeletal muscle (enzyme, UniProt Q9Z280 1-1074, looked up)
chain: MSLKSETRVNTSTLQKIAADMSNLIENLDTRELHFEGEEVEYDASPGDPKAQEGCIPFSSIYNTQGFKEPNIQTYLSGCPIKAQVLEVERFTSTSRVPSINLYTIELTHGEFTWQVKRKFKHFQEFHRELLKYKAFIRIPIPTKRHTFRRQNVKEEPREMPSLPRSSENAIQEEQFFGRRKQLEDYLTKILKMPMYRNYHATTEFLDVSQLSFIHDLGPKGLEGMIMKRSGGHRIPGVNCCGHGRACYRWSKRWLIVKDSFLLYMKPDSGAIAFVLLVDKEFRVKVGRKETETKYGLRIDNLSRTLILKCNSYRHARWWGGAIEEFIRKHGADFLKDHRFGSYAALHENTLAKWYVNAKGYFEDIANAMEEASEEIFITDWWLSPEIFLKRPVVEGNRWRLDCILKRKAQQGVRIFIMLYKEVELALGINSEYSKRTLMRLHPNIKVMRHPDHVSSSVYLWAHHEKLVIIDQSVAFVGGIDLAYGRWDDNEHRLTDVGSVKRVTSGLSLGSLTAASVESMESLSLKDKHEFHKKEPISKIVDETDMKLKGIGKSRKFSKFSLYRQLHRHHLHNADSISSIDSTSSYFSHCRSHQNLIHGLKPHLKLFHPSSESEQGLTRHSTDTGSIRSVQTGVGELHGETRFWHGKDYCNFVFKDWVQLDKPFADFIDRYSTPRMPWHDIGSVVHGKAARDVARHFIQRWNFTKIMKPKYRSLSYPFLLPKSQATAHELRYQVPGAVPAKVQLLRSAADWSAGIKHHEESIHAAYIHVIENSKHYIYIENQFFISCADDKVVFNKVGDRIAQRILKAHREGQRYRVYIVIPLLPGFEGDISTGGGNALQAIMHFNYRTMCRGESSILEQLKPELGNKWINYISFCGLRTHAELEGNLVTELIYVHSKLLIADDNTVIIGSANINDRSMLGKRDSEMAVIVQDTETVPSVMDGKEYQAGRFARDLRLECFRLVLGYLSDPSEDLQDPVSDKFFKEIWVSTAARNATIYDKVFRCLPNDEVHNLIQLRDFINKPILAKEDALRAEEELRKIRGFLVQFPLYFLSEENLLPSVGTKEAIVPMEVWT
notes: Phospholipase D1, endogenous protein of mouse skeletal muscle; Detected by blot with an anti-PLD1 antibody in the anti-PED/PEA-15 precipitate; source: endogenous, tibialis skeletal muscle lysate of Wt and Tg_(Ped/pea-15) mice
binds: all assays above

From PMC3621763, “Adenoviral Gene Transfer of PLD1-D4 Enhances Insulin Sensitivity in Mice by Disrupting Phospholipase D1 Interaction with PED/PEA-15” (PLoS ONE, 2013)
